Measurements reported in PubChem BioAssay AID743121 (NCATS, 2013).
The deposit covers about 26,000 reagents; this is a part drawn at random. Of all reagents, 167 (0.63%) are marked active. 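Calls are per gene from RSA p-values that are not deposited; an individual active-marked siRNA can sensitise only weakly.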 Entries without a mark were called inactive. Reagents against one gene are numbered here. Further read-outs or replicates are left out here.

Screen: 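Partners whose loss is lethal together with topoisomerase I blockade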 (primary screen)
System: MDA-MB-231 cells, a human breast cancer line
Knock-down reagent: single siRNA against human genes, 20 nM siRNA (0.8 pmol per well)
Duration: 120 h (drug added 48 h after transfection, read 72 h later)
Conditions: camptothecin 20 nM (about EC30) for 72 h; vehicle 0.1% DMSO in parallel plates
Detection: 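CellTiter-Glo ATP signal, scaled to control siRNA as percent viability; sensitisation given as log2 of untreated divided by camptothecin-treated viability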
Direction: log2 vehicle/camptothecin viability: higher = stronger sensitisation to camptothecin
Active means: 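Active genes have an RSA gene-level p-value below 0.001, computed from the ratios of their separate siRNAs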

log2 vehicle/camptothecin viability, by gene knocked down and reagent
ADAM2 (GeneID 2515): #1 -0.188; #2 0.692; #3 0.752; #4 -0.0798
ASB14 (GeneID 142686): #1 0.305; #2 -0.585; #3 -0.296
LOC100131514 (retired record) (GeneID 100131514): #1 -0.277; #2 -0.165
CATSPER1 (GeneID 117144): #1 -0.149; #2 0.225; #3 -0.161; #4 -0.86
TBXA2R (GeneID 6915): #1 -0.0616; #2 -0.473; #3 -0.148; #4 -0.18
RNPEP (GeneID 6051): #1 0.624; #2 -0.329; #3 -0.0323
LGMN (GeneID 5641): #1 0.137; #2 0.0301; #3 -0.264; #4 -0.18
POLG (GeneID 5428): #1 -0.0137; #2 -0.00897; #3 0.333; #4 -0.259
CXCL1 (GeneID 2919): #1 -0.00281; #2 -0.0944; #3 -0.0336; #4 0.0615
ABCB7 (GeneID 22): #1 0.0461; #2 -0.356; #3 -0.493
CSK (GeneID 1445): #1 0.221; #2 -0.212; #3 -0.241; #4 -0.101

4 entries from above in another layout.
| gene knocked down | reagent no. | log2 vehicle/camptothecin viability |
| --- | --- | --- |
| CXCL1 (GeneID 2919) | 3 | -0.0336 |
| CXCL1 (GeneID 2919) | 4 | 0.0615 |
| ABCB7 (GeneID 22) | 1 | 0.0461 |
| ABCB7 (GeneID 22) | 2 | -0.356 |

The results go on:
log2 vehicle/camptothecin viability, by gene knocked down and reagent
OMP (GeneID 4975): #1 1.18; #2 -0.169; #3 -0.29; #4 -0.0253
TF (GeneID 7018): #1 -0.49; #2 -0.22; #3 -0.0225; #4 -0.0517
BRCA2 (GeneID 675): #1 0.0149; #2 0.737; #3 -0.173; #4 -0.156
CYP3A5 (GeneID 1577): #1 -0.0371; #2 0.0172; #3 -0.0421
CYB5R2 (GeneID 51700): #1 -0.163; #2 0.307; #3 -0.303; #4 -0.429
POC1A (GeneID 25886): #1 0.102; #2 0.216; #3 -0.207; #4 0.0919
BCCIP (GeneID 56647): #1 0.168; #2 -0.222; #3 -0.219; #4 -0.213
CA9 (GeneID 768): #1 0.136; #2 -0.242; #3 0.445
